Taken from: PubChem BioAssay AID686943 (Drosophila RNAi Screening Center, 2013)
The screen tested about 23,000 reagents; this is an unselected part of those with a known target gene and a result. 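Extra replicates exist only for a retested subset of genes; insulin dose and duration not given; both raised and lowered dpERK matter.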 Names joined by + are all predicted targets of the reagent. Not all columns of the deposit are shown. Not given: the amount of reagent, the time to read-out.

Aim: 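Search across the genome for regulators of signalling from receptor tyrosine kinase to ERK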 (primary screen)
Cells: Drosophila S2R+ haemocyte-like cells expressing YFP-tagged ERK (Rolled)
Knock-down reagent: long dsRNA against Drosophila genes
Conditions: insulin stimulation versus unstimulated cells; dose and duration not given
Measured: 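Antibody staining for doubly phosphorylated ERK divided by ERK-YFP signal, as plate z-scores, in insulin-treated and untreated cells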
Scale: replicate 1, z-score of dpERK with insulin: higher = more active ERK per ERK-YFP after insulin

The opening 2 entries, ahead of the listing:
Gene | DRSC id | replicate 1, z-score of dpERK with insulin
Trf4 (TBP-related factor 4) | DRSC00729 | 0.89
CG9168 | DRSC08633 | -0.01

The list itself, from the first entry:
Gene | DRSC id | replicate 1, z-score of dpERK with insulin
Trf4 (TBP-related factor 4) | DRSC00729 | 0.89
CG9168 | DRSC08633 | -0.01
t-Grip128 (testis-specific gamma-tubulin ring protein 128) | DRSC07853 | 0.09
ND-B16.6 (NADH dehydrogenase (ubiquinone) B16.6 subunit) | DRSC18306 | 0.49
ND-B16.6 (NADH dehydrogenase (ubiquinone) B16.6 subunit) | DRSC22600 | 0.72
CG13460 | DRSC10007 | 0.3
CG7133 | DRSC11798 | -0.08
CR15280 (pseudo) | DRSC01953 | 1.53
cpo (couch potato) | DRSC13265 | 1.07
cpo (couch potato) | DRSC13273 | -0.08
cpo (couch potato) | DRSC14503 | -3.16
cpo (couch potato) | DRSC15327 | -2.44
cpo (couch potato) | DRSC16926 | -2.36
twin | DRSC15259 | -1.74
twin | DRSC15831 | 0.67
twin | DRSC21363 | -0.41
mRpS6 (mitochondrial ribosomal protein S6) | DRSC08470 | -0.48
Arts + Apl | DRSC10349 | 0.19
CG5381 | DRSC02852 | 0.12
Atf-2 + veg (retired record) | DRSC04130 | 0.6
Atf-2 + veg (retired record) | DRSC04413 | -0.39
GC (gamma-glutamyl carboxylase) | DRSC08396 | 0.2
Syx7 (Syntaxin 7) | DRSC11763 | -0.36
Rab6 | DRSC03404 | -0.51
GCS1 (Glucosidase 1) | DRSC19744 | -0.13
Ccdc58 (Coiled-coil domain-containing 58) | DRSC10218 | 0.38
TwdlP (TweedleP) | DRSC14734 | -0.66
cue (cueball) | DRSC08248 | 0.19
List (Lithium-inducible SLC6 transporter) | DRSC06520 | 0.46
CG3213 | DRSC00576 | -0.49
Mbs (Myosin binding subunit) | DRSC09414 | -0.05
Mbs (Myosin binding subunit) | DRSC10525 | 0.31
Mbs (Myosin binding subunit) | DRSC10553 | 0.01
CG3294 | DRSC00590 | -0.09
Acsx4 (Acyl-CoA synthetase X4) | DRSC14311 | 0.6
Tmem131 (Transmembrane protein 131) | DRSC07154 | -0.28
prom (prominin) | DRSC04684 | 0.02
prom (prominin) | DRSC21463 | 0.94
prom (prominin) | DRSC22088 | 2.65
